# Measurements: PubChem BioAssay AID256 (DTP/NCI, 2004)
# The list shows only some results of the screen, not a fair sample: it is rich in T/C values a quarter to a half above the control, in often repeated tests (any T/C) and in doses without a T/C. Further doses and runs are listed elsewhere. T/C gives the treated animals as a percentage of the vehicle group. Some doses have a count of surviving animals in place of a T/C: the source holds a T/C of zero for them, seemingly a mark for toxic or unscored doses. Some survivor counts are full or nearly so, which does not show that the dose was tolerated: survival well below the control is almost never listed, so the zero probably covers shortened survival too. Survivors were counted at the toxicity check, usually on the fifth day, unless a day is given; later deaths do not show. Schedule codes are those of the source, taken here to give the interval after Q, in days (D) or hours (H), and the number of doses after X. Some doses were run more than once; the values are given in rising order. For survival time, this PubChem deposit counts one and a half times the control or more as active, and values a quarter to a half above the control carry no call in these data; other NCI protocols may use other cut-offs. Some T/C values are followed by the survivors on the day toxicity was checked, most often the fifth; without a count, all were alive then.
# Test system: CD2F1 mice, L1210 leukemia ip, survival T/C
# Test: NCI In Vivo Anticancer Drug Screen. Data for tumor model L1210 Leukemia (intraperitoneal) in CD2F1 (CDF1) mice
# Conditions: higher T/C = longer survival
# How it was run: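 Transplantable tumor in mice; compound-treated vs vehicle-treated groups. Read-out = treated/control ratio of the measured endpoint.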
# [1] = T/C endpoint: median survival time, dose: 100.0 mg/kg/injection, schedule: Q04DX003 (ip), vehicle: saline with Tween-80
# [2] = T/C endpoint: median survival time, dose: 200.0 mg/kg/injection, schedule: Q04DX003 (ip), vehicle: saline with Tween-80
# [3] = T/C endpoint: mean survival time, dose: 200.0 mg/kg/injection, schedule: Q04DX003 (ip), vehicle: saline with Tween-80
# [4] = T/C endpoint: mean survival time, dose: 400.0 mg/kg/injection, schedule: Q04DX003 (ip), vehicle: saline with Tween-80
# [5] = T/C endpoint: mean survival time, dose: 200.0 mg/kg/injection, schedule: Q04DX002 (ip), vehicle: saline
# [6] = T/C endpoint: mean survival time, dose: 400.0 mg/kg/injection, schedule: Q04DX002 (ip), vehicle: saline
# [7] = T/C endpoint: mean survival time, dose: 400.0 mg/kg/injection, schedule: Q01DX001 (ip), vehicle: saline with Tween-80
# [8] = T/C endpoint: mean survival time, dose: 50.0 mg/kg/injection, schedule: Q04DX003 (ip), vehicle: saline with Tween-80
# [9] = T/C endpoint: mean survival time, dose: 100.0 mg/kg/injection, schedule: Q04DX003 (ip), vehicle: saline with Tween-80
# [10] = T/C endpoint: mean survival time, dose: 100.0 mg/kg/injection, schedule: Q04DX002 (ip), vehicle: saline with Tween-80
# [11] = T/C endpoint: mean survival time, dose: 200.0 mg/kg/injection, schedule: Q01DX009 (ip), vehicle: saline with Tween-80
# [12] = T/C endpoint: mean survival time, dose: 20.0 mg/kg/injection, schedule: Q01DX009 (ip), vehicle: Klucel (hydroxypropylcellulose) (HPC)
compound,measurement,setting,value
NC1CCCCC1N.O=S(=O)([O-])CCCN1CCOCC1.O=S(=O)([O-])CCCN1CCOCC1.[Pt+4],T/C,"T/C endpoint: median survival time, dose: 3.12 mg/kg/injection, schedule: Q04DX003 (ip), vehicle: saline with Tween-80",137 % of control
same,survivor count,[1],4 of 6 and 6 of 6
same,survivor count,[2],0 of 6
CC(CCC(C)OS(C)(=O)=O)OS(C)(=O)=O (centres undefined),T/C,"T/C endpoint: mean survival time, dose: 8.0 mg/kg/injection, schedule: Q01DX009 (ip), vehicle: saline",126 % of control
CSc1sc2cc([N+](=O)[O-])ccc2[n+]1C,survivor count,"T/C endpoint: mean survival time, dose: 150.0 mg/kg/injection, schedule: Q01DX001 (ip), vehicle: saline",1 of 6
same,survivor count,"T/C endpoint: mean survival time, dose: 300.0 mg/kg/injection, schedule: Q01DX001 (ip), vehicle: saline",0 of 6
COc1cc(/C=N/NC(=O)CN(C)C)cc(OC)c1N(CCCl)CCCl,T/C,"T/C endpoint: mean survival time, dose: 25.0 mg/kg/injection, schedule: Q01DX009 (ip), vehicle: Klucel (hydroxypropylcellulose) (HPC)",125 % of control
Cc1cc([N+](=O)[O-])c2ccccc2[n+]1[O-],survivor count,[3],5 of 6
same,survivor count,[4],0 of 6
CC([NH-])C(C)[NH-].CC([NH-])C(C)[NH-].[Cl][Co][Cl] (centres undefined),T/C,[5],132 % of control [2 of 3 alive]
same,survivor count,[6],0 of 3
O=S(=O)(c1ccc(Cl)cc1)N(Cl)Cl,survivor count,[7],0 of 6
CCc1ccc(O[Si](C)(C)C)cc1,survivor count,[4],5 of 6
CCCCCOC(=O)CCCc1ccc(N(CCCl)CCCl)cc1,T/C,"T/C endpoint: mean survival time, dose: 25.0 mg/kg/injection, schedule: Q01DX009 (ip), vehicle: saline",128 % of control
same,T/C,"T/C endpoint: mean survival time, dose: 50.0 mg/kg/injection, schedule: Q01DX009 (ip), vehicle: saline",135 % of control
CCCCOC(=O)c1cc([N+](=O)[O-])c(Sc2ncnc3nc[nH]c23)c([N+](=O)[O-])c1,T/C,"T/C endpoint: mean survival time, dose: 30.0 mg/kg/injection, schedule: Q01DX005 (ip), vehicle: other",138 % of control
same,T/C,"T/C endpoint: mean survival time, dose: 60.0 mg/kg/injection, schedule: Q01DX005 (ip), vehicle: other",149 % of control
CCCCCCCCCCCC(=O)Nc1ccc(C(C)C)cc1,survivor count,[4],4 of 6
O=C1N(C2CCCCC2)CC2C(c3cccnc3)NNC12O (centres undefined),survivor count,[7],6 of 6
O=C(O)C1CC1,survivor count,"T/C endpoint: mean survival time, dose: 400.0 mg/kg/injection, schedule: Q01DX001 (ip), vehicle: saline",0 of 4
CCOC(=O)C1C2OC(=O)C(C(=O)C2CN(CCCl)CCCl)C1C1CC=C(CC2=CCC(C3C4C(=O)OC(C(CN(CCCl)CCCl)C4=O)C3C(=O)OCC)CC2)CC1 (centres undefined),T/C,"T/C endpoint: mean survival time, dose: 12.5 mg/kg/injection, schedule: Q01DX009 (ip), vehicle: Klucel (hydroxypropylcellulose) (HPC)",125 % of control
same,T/C,"T/C endpoint: mean survival time, dose: 25.0 mg/kg/injection, schedule: Q01DX009 (ip), vehicle: Klucel (hydroxypropylcellulose) (HPC), evaluated on day 30",137 % of control
same,T/C,"T/C endpoint: mean survival time, dose: 25.0 mg/kg/injection, schedule: Q01DX009 (ip), vehicle: Klucel (hydroxypropylcellulose) (HPC), evaluated on day 60",135 % of control
CCCCCCCCCCCC(=O)OCCN(C=O)C[n+]1ccccc1,survivor count,[5],1 of 3
same,survivor count,[6],0 of 3
Cc1ccc(C(=O)c2ccc([N+](=O)[O-])cc2)cc1,survivor count,[4],1 of 3
N[C@@H](Cc1c[nH]c2ccccc12)C(=O)Nc1nncs1,T/C,"T/C endpoint: median survival time, dose: 133.0 mg/kg/injection, schedule: Q03HX027 (ip), vehicle: saline",134 and 142 % of control
same,T/C,"T/C endpoint: median survival time, dose: 221.67 mg/kg/injection, schedule: Q03HX027 (ip), vehicle: saline",146 % of control
same,survivor count,"T/C endpoint: median survival time, dose: 370.0 mg/kg/injection, schedule: Q03HX027 (ip), vehicle: saline",5 of 6
same,survivor count,"T/C endpoint: median survival time, dose: 800.0 mg/kg/injection, schedule: Q01DX009 (ip), vehicle: saline",3 of 6
CC(C)C(NC(=O)C(NC(=O)C(CCCN=C(N)N)NC(=O)C(N)CCCCN)C(C)C)C(N)=O (centres undefined),survivor count,"T/C endpoint: mean survival time, dose: 400.0 mg/kg/injection, schedule: Q01DX009 (ip), vehicle: water",3 of 6
CC(=O)CC(C)=O.CC(=O)CC(C)=O.CC(=O)CC(C)=O.[Fe],survivor count,"T/C endpoint: mean survival time, dose: 25.0 mg/kg/injection, schedule: Q01DX009 (ip), vehicle: saline with Tween-80",3 of 6
same,survivor count,[8],0 of 6
same,survivor count,[9],5 of 6
same,survivor count,[3],0 of 6
same,survivor count,[4],0 of 6
CCN(CC)c1cc(Cl)ccc1Cl,survivor count,[10],0 of 3
same,survivor count,"T/C endpoint: mean survival time, dose: 200.0 mg/kg/injection, schedule: Q01DX001 (ip), vehicle: saline with Tween-80",3 of 6
same,survivor count,[7],2 of 6
Cc1ccc(S(=O)(=O)N=P(c2ccccc2)(c2ccccc2)c2ccccc2)cc1,survivor count,[11],6 of 6
Cc1c2cnccc2c(C)c2c1c1ccccc1n2CCO,T/C,"T/C endpoint: mean survival time, dose: 100.0 mg/kg/injection, schedule: Q01DX009 (ip), vehicle: saline with Tween-80",130 % of control
same,T/C,[11],139 % of control
c1ccc2c(NCCCCCCNc3c4ccccc4nc4ccccc34)c3ccccc3nc2c1,T/C,"T/C endpoint: mean survival time, dose: 2.5 mg/kg/injection, schedule: Q01DX009 (ip), vehicle: Klucel (hydroxypropylcellulose) (HPC)",126 % of control [9 of 10 alive]
same,T/C,"T/C endpoint: mean survival time, dose: 5.0 mg/kg/injection, schedule: Q01DX009 (ip), vehicle: Klucel (hydroxypropylcellulose) (HPC)",128 % of control
same,T/C,"T/C endpoint: mean survival time, dose: 10.0 mg/kg/injection, schedule: Q01DX009 (ip), vehicle: Klucel (hydroxypropylcellulose) (HPC)",129 and 143 % of control [8 of 10 alive]
same,T/C,[12],125 % of control
same,survivor count,[12],4 of 10
same,survivor count,"T/C endpoint: mean survival time, dose: 40.0 mg/kg/injection, schedule: Q01DX009 (ip), vehicle: Klucel (hydroxypropylcellulose) (HPC)",0 of 10 and 4 of 6
COc1cc2cccnc2c2[nH]cc(C(=O)O)c(=O)c12,survivor count,[11],5 of 6
same,survivor count,"T/C endpoint: mean survival time, dose: 400.0 mg/kg/injection, schedule: Q01DX009 (ip), vehicle: saline with Tween-80",1 of 6
Clc1ccc(C[P+](c2ccccc2)(c2ccccc2)c2ccccc2)c(Cl)c1,survivor count,"T/C endpoint: mean survival time, dose: 10.0 mg/kg/injection, schedule: Q01DX009 (ip), vehicle: saline sonified",3 of 6
same,survivor count,"T/C endpoint: mean survival time, dose: 20.0 mg/kg/injection, schedule: Q01DX009 (ip), vehicle: saline sonified",2 of 6
same,survivor count,[8],0 of 6
same,survivor count,"T/C endpoint: mean survival time, dose: 75.0 mg/kg/injection, schedule: Q01DX001 (ip), vehicle: water",0 of 6
same,survivor count,[9],0 of 6
same,survivor count,"T/C endpoint: mean survival time, dose: 150.0 mg/kg/injection, schedule: Q01DX001 (ip), vehicle: water",0 of 6
same,survivor count,[3],0 of 6
same,survivor count,"T/C endpoint: mean survival time, dose: 300.0 mg/kg/injection, schedule: Q01DX001 (ip), vehicle: water",0 of 6
same,survivor count,[4],0 of 6
Cc1cc2ccccc2c[n+]1C,survivor count,"T/C endpoint: mean survival time, dose: 100.0 mg/kg/injection, schedule: Q04DX003 (ip), vehicle: saline",6 of 6
same,survivor count,"T/C endpoint: mean survival time, dose: 200.0 mg/kg/injection, schedule: Q04DX003 (ip), vehicle: saline",0 of 6
same,survivor count,"T/C endpoint: mean survival time, dose: 400.0 mg/kg/injection, schedule: Q04DX003 (ip), vehicle: saline",0 of 6
CCCN(CCC)CCCC#N,survivor count,[11],1 of 6
N=C(N)SSCc1ccco1,survivor count,[10],0 of 3
same,survivor count,"T/C endpoint: mean survival time, dose: 200.0 mg/kg/injection, schedule: Q04DX002 (ip), vehicle: saline with Tween-80",0 of 3
same,survivor count,"T/C endpoint: mean survival time, dose: 400.0 mg/kg/injection, schedule: Q04DX002 (ip), vehicle: saline with Tween-80",0 of 3
CN(C)N=Nc1ccc(S(N)(=O)=O)cc1,T/C,"T/C endpoint: mean survival time, dose: 75.0 mg/kg/injection, schedule: Q01DX009 (ip), vehicle: Klucel (hydroxypropylcellulose) (HPC)",140 % of control
same,survivor count,"T/C endpoint: mean survival time, dose: 300.0 mg/kg/injection, schedule: Q01DX009 (ip), vehicle: Klucel (hydroxypropylcellulose) (HPC)",5 of 6
O=C(O)CC(c1ccccc1)C(CC(=O)O)c1ccccc1.[NH-]C1CCCCC1[NH-].[Pt+2] (centres undefined),T/C,[1],133 % of control
same,survivor count,[2],3 of 6
same,T/C,"T/C endpoint: median survival time, dose: 200.0 mg/kg/injection, schedule: Q04DX003 (ip), vehicle: saline",139 % of control
NS(=O)(=O)O,survivor count,[9],3 of 6
same,survivor count,[3],1 of 6
same,survivor count,[4],0 of 6
